Results from publication PMC5187411.
No constants are given. Whether binding was seen depends on the method and setting. Binding seen in cells or lysates may run through a third protein. Binding calls can cover weak binding; strength is not graded here.

Protein sequences, listed by entry. Tags and fused reporters are not part of them. Lines headed by an entry give the natural chain unless they say otherwise; changes in a name come on top.
UniProt Q388W2: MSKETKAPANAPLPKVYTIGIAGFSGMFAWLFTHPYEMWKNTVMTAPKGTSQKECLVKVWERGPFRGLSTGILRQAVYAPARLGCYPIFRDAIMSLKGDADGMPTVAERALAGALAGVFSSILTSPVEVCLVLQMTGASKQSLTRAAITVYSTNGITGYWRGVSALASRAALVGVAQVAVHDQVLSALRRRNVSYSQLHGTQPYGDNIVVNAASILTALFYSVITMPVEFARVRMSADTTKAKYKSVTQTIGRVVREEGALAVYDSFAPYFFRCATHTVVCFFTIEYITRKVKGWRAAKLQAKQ
UniProt Q38DQ3: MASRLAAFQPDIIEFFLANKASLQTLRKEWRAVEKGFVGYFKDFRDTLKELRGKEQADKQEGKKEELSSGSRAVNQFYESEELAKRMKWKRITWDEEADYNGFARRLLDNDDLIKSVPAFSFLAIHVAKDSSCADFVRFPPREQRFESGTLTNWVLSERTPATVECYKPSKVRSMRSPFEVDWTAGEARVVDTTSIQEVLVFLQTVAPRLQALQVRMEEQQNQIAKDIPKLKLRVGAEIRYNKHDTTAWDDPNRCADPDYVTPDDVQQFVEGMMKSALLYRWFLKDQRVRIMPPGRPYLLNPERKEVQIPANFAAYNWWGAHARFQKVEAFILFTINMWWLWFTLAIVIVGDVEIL

Target: C-terminally myc-tagged MCP12 lacking the first module (T. brucei) (UniProt Q388W2)
Experiment: co-IP; IP with anti-myc antibodies from digitonin-solubilized mitochondrial extracts of cells expressing MCP12-FL-myc or MCP12-ΔI-myc; immunoblot

binding: binds
Substance: TbTim42 (from UniProt Q38DQ3)
